Assay results: the supplement of paper PMC10849652
The other results are listed elsewhere or left out.

By UniProt entry, the sequences of proteins in these tests, tags left out. Where a name states a change or a piece, a line headed by the entry shows the natural chain unless it says otherwise.
UniProt Q9Y6I9: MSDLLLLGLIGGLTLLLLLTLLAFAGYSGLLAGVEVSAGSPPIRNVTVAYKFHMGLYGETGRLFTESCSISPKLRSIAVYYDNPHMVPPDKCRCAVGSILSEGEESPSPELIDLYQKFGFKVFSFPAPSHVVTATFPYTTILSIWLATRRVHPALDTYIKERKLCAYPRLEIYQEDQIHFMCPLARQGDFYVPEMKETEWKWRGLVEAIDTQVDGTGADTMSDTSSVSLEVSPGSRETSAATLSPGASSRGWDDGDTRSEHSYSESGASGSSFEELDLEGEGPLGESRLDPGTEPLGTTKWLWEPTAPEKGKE
UniProt Q15554: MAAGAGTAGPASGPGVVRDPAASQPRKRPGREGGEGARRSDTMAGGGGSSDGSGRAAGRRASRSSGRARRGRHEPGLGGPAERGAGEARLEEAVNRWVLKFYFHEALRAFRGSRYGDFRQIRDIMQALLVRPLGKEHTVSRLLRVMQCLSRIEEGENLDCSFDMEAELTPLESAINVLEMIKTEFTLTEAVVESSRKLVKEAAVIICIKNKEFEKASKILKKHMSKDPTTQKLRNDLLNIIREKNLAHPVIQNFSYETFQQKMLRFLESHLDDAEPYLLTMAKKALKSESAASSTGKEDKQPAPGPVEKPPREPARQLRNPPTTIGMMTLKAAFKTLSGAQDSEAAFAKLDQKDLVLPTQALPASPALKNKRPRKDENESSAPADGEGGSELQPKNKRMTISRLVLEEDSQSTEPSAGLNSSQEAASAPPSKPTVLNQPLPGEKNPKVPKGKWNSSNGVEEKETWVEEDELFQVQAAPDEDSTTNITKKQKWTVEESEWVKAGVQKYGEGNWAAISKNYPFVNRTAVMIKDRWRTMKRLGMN
UniProt Q8WVM0: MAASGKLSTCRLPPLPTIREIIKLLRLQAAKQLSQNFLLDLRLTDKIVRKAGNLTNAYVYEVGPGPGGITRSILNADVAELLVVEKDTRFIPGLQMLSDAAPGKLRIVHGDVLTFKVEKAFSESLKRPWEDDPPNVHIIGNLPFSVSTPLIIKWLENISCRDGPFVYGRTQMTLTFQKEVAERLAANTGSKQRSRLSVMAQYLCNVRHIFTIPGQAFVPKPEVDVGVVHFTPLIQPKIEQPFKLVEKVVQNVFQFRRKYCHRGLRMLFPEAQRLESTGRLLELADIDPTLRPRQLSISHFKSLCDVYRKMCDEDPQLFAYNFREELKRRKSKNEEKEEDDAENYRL
UniProt Q96QE5: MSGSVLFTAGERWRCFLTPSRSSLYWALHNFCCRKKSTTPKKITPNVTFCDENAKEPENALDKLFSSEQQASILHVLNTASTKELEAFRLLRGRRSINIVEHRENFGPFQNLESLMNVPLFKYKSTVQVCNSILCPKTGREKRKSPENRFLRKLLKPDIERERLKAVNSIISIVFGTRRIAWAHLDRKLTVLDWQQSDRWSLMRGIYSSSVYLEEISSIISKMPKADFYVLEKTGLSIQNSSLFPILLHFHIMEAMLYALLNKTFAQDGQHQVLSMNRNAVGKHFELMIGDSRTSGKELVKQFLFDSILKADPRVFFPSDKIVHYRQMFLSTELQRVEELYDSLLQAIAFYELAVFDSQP
UniProt Q3MII6: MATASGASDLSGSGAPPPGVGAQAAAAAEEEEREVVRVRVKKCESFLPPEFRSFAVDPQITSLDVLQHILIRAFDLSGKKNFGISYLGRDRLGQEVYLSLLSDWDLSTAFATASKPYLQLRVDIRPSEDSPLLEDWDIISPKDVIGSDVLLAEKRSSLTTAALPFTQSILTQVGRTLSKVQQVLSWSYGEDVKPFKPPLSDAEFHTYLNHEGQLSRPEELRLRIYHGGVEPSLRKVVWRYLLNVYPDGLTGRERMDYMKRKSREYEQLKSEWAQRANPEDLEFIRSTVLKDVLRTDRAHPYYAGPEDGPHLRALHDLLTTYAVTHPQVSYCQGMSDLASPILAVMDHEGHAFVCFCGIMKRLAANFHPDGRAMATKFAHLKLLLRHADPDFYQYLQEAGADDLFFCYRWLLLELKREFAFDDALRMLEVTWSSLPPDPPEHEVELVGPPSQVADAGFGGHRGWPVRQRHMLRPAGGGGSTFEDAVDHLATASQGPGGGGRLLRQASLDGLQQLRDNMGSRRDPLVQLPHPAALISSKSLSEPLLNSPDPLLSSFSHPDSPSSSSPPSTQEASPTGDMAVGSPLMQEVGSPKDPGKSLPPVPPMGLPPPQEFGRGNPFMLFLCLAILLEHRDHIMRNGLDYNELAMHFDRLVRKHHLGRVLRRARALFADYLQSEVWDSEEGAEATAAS
UniProt A2RTX5: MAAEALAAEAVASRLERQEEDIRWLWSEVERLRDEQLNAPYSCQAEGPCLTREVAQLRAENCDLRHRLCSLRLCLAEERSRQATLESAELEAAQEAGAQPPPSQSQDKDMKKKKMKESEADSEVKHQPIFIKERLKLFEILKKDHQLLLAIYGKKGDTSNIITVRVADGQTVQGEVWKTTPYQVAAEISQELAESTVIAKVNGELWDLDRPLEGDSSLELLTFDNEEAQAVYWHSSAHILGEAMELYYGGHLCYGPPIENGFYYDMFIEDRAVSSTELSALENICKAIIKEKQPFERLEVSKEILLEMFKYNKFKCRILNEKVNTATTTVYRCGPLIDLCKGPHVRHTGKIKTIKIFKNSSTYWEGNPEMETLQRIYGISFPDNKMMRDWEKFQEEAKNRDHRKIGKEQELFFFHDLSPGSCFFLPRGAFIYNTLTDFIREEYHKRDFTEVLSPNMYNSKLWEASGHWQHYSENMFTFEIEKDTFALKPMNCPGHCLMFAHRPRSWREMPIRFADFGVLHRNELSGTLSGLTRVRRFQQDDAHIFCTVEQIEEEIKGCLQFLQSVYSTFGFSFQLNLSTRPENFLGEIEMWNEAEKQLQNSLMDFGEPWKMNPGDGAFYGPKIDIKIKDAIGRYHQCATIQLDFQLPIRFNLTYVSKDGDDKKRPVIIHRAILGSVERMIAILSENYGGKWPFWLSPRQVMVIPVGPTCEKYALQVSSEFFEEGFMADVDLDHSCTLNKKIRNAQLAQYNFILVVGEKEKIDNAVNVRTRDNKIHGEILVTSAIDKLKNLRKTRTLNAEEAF
UniProt Q7Z7C8, whole entry, looked up: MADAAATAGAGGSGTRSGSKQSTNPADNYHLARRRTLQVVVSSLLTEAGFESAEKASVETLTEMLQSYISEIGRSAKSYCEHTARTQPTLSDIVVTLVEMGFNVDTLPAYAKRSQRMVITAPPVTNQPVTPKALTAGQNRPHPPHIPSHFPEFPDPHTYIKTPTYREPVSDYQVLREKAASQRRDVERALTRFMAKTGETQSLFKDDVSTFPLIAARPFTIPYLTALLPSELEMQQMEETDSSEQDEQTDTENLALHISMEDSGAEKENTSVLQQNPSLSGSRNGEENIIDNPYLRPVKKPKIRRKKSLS
UniProt Q96BZ9: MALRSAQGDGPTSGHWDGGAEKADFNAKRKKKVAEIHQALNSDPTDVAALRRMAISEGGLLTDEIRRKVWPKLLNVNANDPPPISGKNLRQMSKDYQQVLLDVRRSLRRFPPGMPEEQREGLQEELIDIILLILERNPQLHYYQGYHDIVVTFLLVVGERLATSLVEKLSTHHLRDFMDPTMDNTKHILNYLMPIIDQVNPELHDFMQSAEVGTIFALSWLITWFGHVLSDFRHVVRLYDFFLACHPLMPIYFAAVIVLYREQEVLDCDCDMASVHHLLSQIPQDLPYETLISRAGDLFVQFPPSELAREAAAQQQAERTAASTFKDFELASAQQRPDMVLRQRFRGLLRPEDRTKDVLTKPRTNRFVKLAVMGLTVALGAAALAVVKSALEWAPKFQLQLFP
UniProt Q86VP1, whole entry, looked up: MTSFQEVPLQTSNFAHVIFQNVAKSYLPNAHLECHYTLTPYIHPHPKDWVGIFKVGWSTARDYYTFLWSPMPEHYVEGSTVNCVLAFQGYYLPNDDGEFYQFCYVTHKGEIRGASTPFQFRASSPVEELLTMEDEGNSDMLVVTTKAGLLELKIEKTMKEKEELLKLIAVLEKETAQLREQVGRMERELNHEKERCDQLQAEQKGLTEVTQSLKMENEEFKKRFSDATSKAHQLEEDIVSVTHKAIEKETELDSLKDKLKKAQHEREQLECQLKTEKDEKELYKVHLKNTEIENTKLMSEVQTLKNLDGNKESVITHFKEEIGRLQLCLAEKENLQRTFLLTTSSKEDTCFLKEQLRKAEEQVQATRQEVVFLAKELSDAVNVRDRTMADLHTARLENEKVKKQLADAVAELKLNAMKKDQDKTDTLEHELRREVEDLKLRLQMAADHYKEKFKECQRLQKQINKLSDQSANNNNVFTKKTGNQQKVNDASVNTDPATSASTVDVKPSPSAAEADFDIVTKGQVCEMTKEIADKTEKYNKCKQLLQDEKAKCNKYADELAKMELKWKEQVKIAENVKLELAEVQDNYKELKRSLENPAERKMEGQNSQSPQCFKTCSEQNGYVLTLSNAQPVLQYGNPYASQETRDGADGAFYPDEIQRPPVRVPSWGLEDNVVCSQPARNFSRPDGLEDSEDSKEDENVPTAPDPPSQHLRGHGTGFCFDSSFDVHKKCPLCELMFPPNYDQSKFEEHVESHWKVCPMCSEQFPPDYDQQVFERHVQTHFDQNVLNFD
UniProt Q9NUW8, whole entry, looked up: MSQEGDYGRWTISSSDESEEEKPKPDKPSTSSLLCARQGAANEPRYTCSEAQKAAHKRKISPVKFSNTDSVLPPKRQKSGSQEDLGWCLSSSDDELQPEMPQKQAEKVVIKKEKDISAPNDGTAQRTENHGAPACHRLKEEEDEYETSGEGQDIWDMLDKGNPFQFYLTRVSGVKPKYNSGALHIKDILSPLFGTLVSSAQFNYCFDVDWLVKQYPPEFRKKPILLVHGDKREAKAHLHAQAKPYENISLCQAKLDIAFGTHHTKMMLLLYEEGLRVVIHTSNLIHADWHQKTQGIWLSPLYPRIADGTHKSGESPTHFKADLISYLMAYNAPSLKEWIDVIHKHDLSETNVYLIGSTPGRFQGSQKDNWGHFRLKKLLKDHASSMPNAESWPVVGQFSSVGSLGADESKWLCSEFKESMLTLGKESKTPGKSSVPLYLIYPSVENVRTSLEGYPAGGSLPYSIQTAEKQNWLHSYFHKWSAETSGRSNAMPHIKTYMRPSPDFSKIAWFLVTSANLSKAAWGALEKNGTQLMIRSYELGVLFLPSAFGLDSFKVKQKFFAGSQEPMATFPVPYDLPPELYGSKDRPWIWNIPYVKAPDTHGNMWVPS
UniProt Q16594, whole entry, looked up: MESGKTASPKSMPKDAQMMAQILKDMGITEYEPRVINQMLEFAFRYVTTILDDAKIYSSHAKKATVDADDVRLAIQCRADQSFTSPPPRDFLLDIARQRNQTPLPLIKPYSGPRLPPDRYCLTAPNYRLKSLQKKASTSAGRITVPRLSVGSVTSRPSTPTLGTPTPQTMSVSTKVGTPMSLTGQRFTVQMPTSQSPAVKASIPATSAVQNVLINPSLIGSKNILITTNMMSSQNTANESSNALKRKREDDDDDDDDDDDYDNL
UniProt Q9BT92: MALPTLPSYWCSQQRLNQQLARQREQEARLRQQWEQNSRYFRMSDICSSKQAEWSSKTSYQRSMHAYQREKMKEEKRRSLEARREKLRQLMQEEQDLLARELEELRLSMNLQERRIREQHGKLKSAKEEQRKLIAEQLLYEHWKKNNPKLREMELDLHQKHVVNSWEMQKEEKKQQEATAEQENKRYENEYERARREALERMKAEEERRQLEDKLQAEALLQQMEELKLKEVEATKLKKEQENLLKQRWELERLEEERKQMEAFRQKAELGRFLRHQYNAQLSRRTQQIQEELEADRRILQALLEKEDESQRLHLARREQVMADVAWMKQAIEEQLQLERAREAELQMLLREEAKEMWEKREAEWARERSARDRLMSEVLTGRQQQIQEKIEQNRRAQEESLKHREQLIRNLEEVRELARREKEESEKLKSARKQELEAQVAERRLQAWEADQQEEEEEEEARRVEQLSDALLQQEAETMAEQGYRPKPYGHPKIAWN

How the values were obtained:
Test in all cases: log2 fold change, soluble protein after heating vs DMSO (PISA); higher = thermal stabilisation; K562 lysate, 10 uM; active = over 0.2 and 3.5 SD of the protein, either way, in both replicates (recomputed)
alvocidib = compound: CN1CC[C@H](c2c(O)cc(O)c3c(=O)cc(-c4ccccc4Cl)oc23)[C@H](O)C1 [alvocidib]
Outline: (§1)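 To prepare the extract, K562 pellets were dounce-homogenised in PBS pH 7.4 with 1 mM MgCl2, giving crude material at 1 mg/mL protein. This was treated with 10 μM compound for 30 min, then heated in aliquots for 3 min over 48°C-58°C before pooling and addition of NP-40 to 0.5% at 4°C. Centrifugation at 21,000xg for 90 min left soluble protein in the supernatant, which TMTpro 16plex LC-MS/MS quantified with equalised channel sums. Results are log-two fold changes in thermal stability compared with solvent controls, from duplicates.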

Tubastatin A = compound: CN1CCc2c(c3ccccc3n2Cc2ccc(C(=O)NO)cc2)C1 [Tubastatin A]
Outline: as §1

[1] = compound: CNC(=O)C1=CC=CC=C1NC2=NC(=NC=C2Cl)NC3=C(C=C(C=C3)N4CCOCC4)OC
Outline: as §1

defactinib = compound: CNC(=O)c1ccc(Nc2ncc(C(F)(F)F)c(NCc3nccnc3N(C)S(C)(=O)=O)n2)cc1 [defactinib]
Outline: as §1

[2] = compound: CNc1nc(-c2ccc3c(N)n[nH]c3c2)cc(N2C[C@@H](C(=O)NC3CCCCC3)CC[C@H]2C)n1
Outline: as §1

encorafenib = compound: COC(=O)N[C@@H](C)CNc1nccc(-c2cn(C(C)C)nc2-c2cc(Cl)cc(NS(C)(=O)=O)c2F)n1 [encorafenib]
Outline: as §1

[3] = compound: COC(=O)[C@H](CCSC)NC(=O)C1=C(C=C(C=C1)NC[C@H](CS)N)C2=CC=CC=C2
Outline: as §1

alisertib = compound: COc1cc(Nc2ncc3c(n2)-c2ccc(Cl)cc2C(c2c(F)cccc2OC)=NC3)ccc1C(=O)O [alisertib]
Outline: as §1

[4] = compound: COc1cc2nc(-c3cc(F)ccc3O)nc(N[C@@H]3CNC[C@H]3C(C)(C)O)c2cc1OC
Outline: as §1

gefitinib = compound: COc1cc2ncnc(Nc3ccc(F)c(Cl)c3)c2cc1OCCCN1CCOCC1 [gefitinib]
Outline: as §1

lapatinib = compound: CS(=O)(=O)CCNCc1ccc(-c2ccc3ncnc(Nc4ccc(OCc5cccc(F)c5)c(Cl)c4)c3c2)o1 [lapatinib]
Outline: as §1

pictilisib = compound: CS(=O)(=O)N1CCN(Cc2cc3nc(-c4cccc5[nH]ncc45)nc(N4CCOCC4)c3s2)CC1 [pictilisib]
Outline: as §1

crizotinib = compound: C[C@@H](Oc1cc(-c2cnn(C3CCNCC3)c2)cnc1N)c1c(Cl)ccc(F)c1Cl [crizotinib]
Outline: as §1

[5] = compound: C[C@H](C1=CC=C(C=C1)C(=O)NC2=C3C=CNC3=NC=C2)N
Outline: as §1

duvelisib = compound: C[C@H](Nc1ncnc2nc[nH]c12)c1cc2cccc(Cl)c2c(=O)n1-c1ccccc1 [duvelisib]
Outline: as §1

gandotinib = compound: Cc1cc(Nc2cc(CN3CCOCC3)c3nc(C)c(Cc4ccc(Cl)cc4F)n3n2)n[nH]1 [gandotinib]
Outline: as §1

tozasertib = compound: Cc1cc(Nc2cc(N3CCN(C)CC3)nc(Sc3ccc(NC(=O)C4CC4)cc3)n2)n[nH]1 [tozasertib]
Outline: as §1

doramapimod = compound: Cc1ccc(-n2nc(C(C)(C)C)cc2NC(=O)Nc2ccc(OCCN3CCOCC3)c3ccccc23)cc1 [doramapimod]
Outline: as §1

bafetinib = compound: Cc1ccc(NC(=O)c2ccc(CN3CC[C@H](N(C)C)C3)c(C(F)(F)F)c2)cc1Nc1nccc(-c2cncnc2)n1 [bafetinib]
Outline: as §1

[6] = compound: Cc1cccc(CC(=O)N2CCc3c2ccc(-c2cn(C)c4ncnc(N)c24)c3F)n1
Outline: as §1

Measured: log2 fold change

TEX264 (UniProt Q9Y6I9)
inactive: alvocidib 0.103 | Tubastatin A 0.056 | [1] 0.086 | defactinib 0.079 | [2] 0.47 | encorafenib -0.131 | [3] 0.06 | alisertib -0.024 | [4] 0.063 | gefitinib 0.018 | lapatinib 0.247 | pictilisib 0.115 | crizotinib -0.012 | [5] 0.21 | duvelisib -0.104 | gandotinib -0.086 | tozasertib 0.05 | doramapimod -0.008 | bafetinib 0.176 | [6] -0.083

TERF2 (UniProt Q15554)
inactive: alvocidib 0.004 | Tubastatin A 0.022 | [1] 0.023 | defactinib 0.051 | [2] -0.001 | encorafenib -0.005 | [3] 0.082 | alisertib -0.07 | [4] -0.023 | gefitinib 0.023 | lapatinib 0.023 | pictilisib 0.005 | crizotinib -0.032 | [5] 0.047 | duvelisib 0.032 | gandotinib -0.151 | tozasertib -0.004 | doramapimod -0.006 | bafetinib -0.057 | [6] 0.022

TFB1M (UniProt Q8WVM0)
inactive: alvocidib 0.026 | Tubastatin A -0.086 | [1] -0.046 | defactinib 0.05 | [2] 0.075 | encorafenib 0.023 | [3] -0.099 | alisertib -0.026 | [4] -0.004 | gefitinib 0.033 | lapatinib -0.051 | pictilisib 0.003 | crizotinib 0.017 | [5] -0.032 | duvelisib -0.025 | gandotinib -0.066 | tozasertib 0.003 | doramapimod 0 | bafetinib 0.055 | [6] 0.019

TEFM (UniProt Q96QE5)
inactive: alvocidib 0.023 | Tubastatin A 0.015 | [1] 0.037 | defactinib 0.09 | [2] -0.05 | encorafenib -0.118 | [3] 0.08 | alisertib -0.002 | [4] 0.004 | gefitinib -0.052 | lapatinib -0.04 | crizotinib -0.039 | [5] 0.084 | duvelisib -0.016 | gandotinib -0.062 | tozasertib 0.232 | doramapimod -0.011 | [6] -0.04

TBC1D25 (UniProt Q3MII6)
inactive: alvocidib 0.036 | Tubastatin A 0.028 | [1] -0.014 | defactinib 0.025 | [2] 0.003 | encorafenib 0.091 | [3] 0.038 | alisertib -0.021 | [4] -0.032 | gefitinib 0.09 | lapatinib -0.009 | crizotinib -0.097 | [5] -0.009 | duvelisib 0.049 | gandotinib -0.168 | tozasertib -0.284 | doramapimod -0.02 | [6] -0.036

Retrieved one by one from the entries so far, two records:
TERF2 (UniProt Q15554)
inactive: alvocidib 0.004 | Tubastatin A 0.022 | [1] 0.023 | defactinib 0.051 | [2] -0.001 | encorafenib -0.005 | [3] 0.082 | alisertib -0.07 | [4] -0.023 | gefitinib 0.023 | lapatinib 0.023 | pictilisib 0.005 | crizotinib -0.032 | [5] 0.047 | duvelisib 0.032 | gandotinib -0.151 | tozasertib -0.004 | doramapimod -0.006 | bafetinib -0.057 | [6] 0.022

TEFM (UniProt Q96QE5)
inactive: alvocidib 0.023 | Tubastatin A 0.015 | [1] 0.037 | defactinib 0.09 | [2] -0.05 | encorafenib -0.118 | [3] 0.08 | alisertib -0.002 | [4] 0.004 | gefitinib -0.052 | lapatinib -0.04 | crizotinib -0.039 | [5] 0.084 | duvelisib -0.016 | gandotinib -0.062 | tozasertib 0.232 | doramapimod -0.011 | [6] -0.04

More results.

TF (UniProt P02787)
inactive: alvocidib 0.024 | Tubastatin A 0.043 | [1] 0.035 | defactinib -0.029 | [2] 0.012 | encorafenib -0.067 | [3] 0.066 | alisertib 0.011 | [4] -0.005 | gefitinib 0.251 | lapatinib -0.013 | pictilisib -0.015 | crizotinib 0.084 | [5] -0.119 | duvelisib 0.033 | gandotinib 0.122 | tozasertib 0.01 | doramapimod -0.007 | bafetinib 0.008 | [6] 0.025

TARSL2 (UniProt A2RTX5)
inactive: alvocidib -0.019 | Tubastatin A 0.012 | [1] 0.026 | defactinib 0.014 | [2] 0.034 | encorafenib -0.009 | [3] 0.078 | alisertib -0.028 | [4] 0.017 | gefitinib -0.029 | lapatinib -0.034 | pictilisib -0.006 | crizotinib -0.027 | [5] -0.044 | duvelisib -0.005 | gandotinib 0.036 | tozasertib 0.039 | doramapimod -0.006 | bafetinib -0.061 | [6] 0.036

TAF8 isoform 2 (UniProt Q7Z7C8)
inactive: alvocidib -0.003 | Tubastatin A -0.007 | [1] -0.068 | defactinib 0.029 | [2] -0.035 | encorafenib 0.055 | [3] -0.019 | alisertib 0.011 | [4] 0.029 | gefitinib 0.038 | lapatinib 0.043 | pictilisib -0.014 | crizotinib -0.028 | [5] 0.013 | duvelisib 0.035 | gandotinib 0.035 | tozasertib 0.073 | doramapimod 0.037 | bafetinib -0.115 | [6] 0.072

TBC1D20 isoform 3 (UniProt Q96BZ9)
inactive: alvocidib -0.011 | Tubastatin A -0.131 | [1] -0.017 | defactinib 0.166 | [2] 0.109 | encorafenib 0.037 | [3] -0.047 | [4] -0.021 | lapatinib -0.019 | pictilisib -0.12 | crizotinib -0.066 | [5] -0.087 | duvelisib 0.021 | gandotinib -0.105 | tozasertib -0.017 | doramapimod -0.095 | bafetinib -0.303 | [6] 0.025

TAX1BP1 (UniProt Q86VP1)
inactive: alvocidib -0.005 | Tubastatin A -0.025 | [1] 0.002 | defactinib -0.002 | [2] -0.04 | encorafenib -0.01 | [3] -0.053 | alisertib 0.011 | [4] -0.035 | gefitinib 0.033 | lapatinib -0.05 | pictilisib -0.032 | crizotinib -0.006 | [5] 0 | duvelisib -0.031 | gandotinib 0.019 | tozasertib -0.016 | doramapimod 0 | bafetinib -0.045 | [6] 0.031

TBCD (UniProt Q9BTW9)
inactive: alvocidib -0.014 | Tubastatin A -0.047 | [1] 0.036 | defactinib -0.015 | [2] 0 | encorafenib 0.021 | [3] 0.016 | alisertib 0.016 | [4] 0.008 | gefitinib 0.012 | lapatinib -0.014 | pictilisib -0.03 | crizotinib -0.052 | [5] -0.079 | duvelisib 0.006 | gandotinib 0.002 | tozasertib 0.002 | doramapimod 0.021 | bafetinib -0.034 | [6] 0.066

TAF9B (UniProt Q9HBM6)
inactive: alvocidib 0.053 | Tubastatin A 0.053 | [1] 0.113 | defactinib 0.031 | [2] 0.085 | encorafenib 0.115 | [3] -0.202 | [4] -0.154 | lapatinib -0.281 | pictilisib 0.032 | crizotinib 0.033 | [5] 0.072 | duvelisib -0.002 | gandotinib 0.049 | tozasertib 0.056 | doramapimod 0 | bafetinib 0.341 | [6] -0.113

TDP1 (UniProt Q9NUW8)
inactive: alvocidib 0.011 | Tubastatin A 0.072 | [1] 0.102 | defactinib -0.009 | [2] 0.009 | encorafenib -0.161 | [3] 0.061 | alisertib -0.043 | [4] 0.012 | lapatinib -0.014 | pictilisib -0.018 | crizotinib 0.031 | [5] -0.018 | duvelisib -0.052 | gandotinib 0 | tozasertib -0.082 | doramapimod -0.037 | bafetinib 0.048 | [6] -0.029

TAF9 (UniProt Q16594)
inactive: alvocidib 0.032 | Tubastatin A -0.026 | [1] 0.014 | defactinib -0.03 | [2] -0.004 | encorafenib 0.099 | [3] -0.041 | alisertib 0.004 | [4] 0.038 | gefitinib 0.084 | lapatinib -0.06 | pictilisib -0.018 | crizotinib -0.004 | [5] 0.188 | duvelisib 0.084 | gandotinib -0.002 | tozasertib 0.156 | doramapimod 0.001 | bafetinib 0.018 | [6] -0.057

TCF12 isoform 3 (UniProt Q99081)
inactive: alvocidib -0.045 | Tubastatin A -0.129 | [1] 0.009 | defactinib -0.007 | [2] -0.013 | encorafenib 0.039 | [3] -0.043 | alisertib 0.004 | [4] -0.025 | gefitinib 0.028 | lapatinib -0.047 | pictilisib 0.055 | crizotinib 0.034 | [5] -0.038 | duvelisib 0.025 | gandotinib 0.056 | tozasertib 0.023 | doramapimod -0.011 | bafetinib -0.11 | [6] -0.001

TCHP (UniProt Q9BT92)
inactive: alvocidib -0.14 | Tubastatin A -0.064 | [1] 0.084 | defactinib -0.086 | [2] -0.01 | encorafenib -0.003 | [3] 0.028 | alisertib -0.174 | gefitinib -0.014 | pictilisib -0.031 | crizotinib 0.059 | [5] -0.101 | duvelisib -0.021 | gandotinib -0.028 | tozasertib 0.02 | doramapimod 0.056 | bafetinib 0.118 | [6] -0.038
